Test results: PubChem BioAssay
This is one part of the list. Results with a measured potency or affinity are listed apart. Entries without a call are filed as inconclusive in the source.

Experiments:
[1] = Polyglutamine toxicity reduction dose response, whole organism Drosophila SCA1 model (AID 1595); details: at 1 µM, stronger effect = higher value
PubChem AID 1597 = details: Drosophila SCA1 polyglutamine model, at 1 µM, stronger effect = higher value

Row | Structure (SMILES) | suppression of toxicity [1] | suppression of toxicity (PubChem AID 1597)
1 | CC[C@@H](C(=O)C(C)[C@@H](O)[C@H](C)CCc1ccc(C)c(O)c1C(=O)O)C1OC(CC)(C2CC[C@](O)(CC)[C@H](C)O2)C[C@@H]1C (some centres undefined) | 4.29 | 5
2 | COc1ccc2c(c1)c(CC(=O)O)c(C)n2C(=O)c1ccc(Cl)cc1 | 1.43 | 4.29
3 | CC(=O)[C@@]1(O)CCC2C3C=C(Cl)C4=CC(=O)[C@@H]5CC5[C@]4(C)C3CC[C@@]21C (some centres undefined) | 2.85 | 3.57
4 | CC(=O)N[C@@H](Cc1c[nH]c2ccccc12)C(N)=O | 1.43 | 11.4
5 | COC1=CC(C)[C@@H]2C[C@H]3OC(=O)C[C@H]4C(C)=C(OC)C(=O)C([C@@]34C)[C@@]2(C)C1=O (some centres undefined) | 0 | 3.58
6 | C[C@@H]1CC2C3C[C@H](F)C4=CC(=O)C=C[C@]4(C)[C@@]3(F)[C@@H](O)C[C@]2(C)[C@@]1(O)C(=O)COC(=O)C(C)(C)C (some centres undefined) | 1.43 | 1.43
7 | CN(C)CCCN1c2ccccc2Sc2ccccc21 | 0 | 0
8 | CCC(C)C(N)C(=O)N1CCCC1C(=O)NC(C(=O)O)C(C)CC (centres undefined) | 15.7 | 15.7
9 | Cc1c(N)c(=O)n(-c2ccccc2)n1C | 0 | 0.715
10 | CN(C)CC/C=C1\c2ccccc2Sc2ccc(Cl)cc21 | 0 | 0.715
11 | CC(=O)Nc1ccc(OCC(O)CNC(C)C)cc1 (centres undefined) | 0 | 2.15
12 | CCCCOc1ccc(CC(=O)NO)cc1 | 4.29 | 16.4
13 | O=c1[nH]cc(F)c(=O)[nH]1 | 2.85 | 5.71
14 | CC(=O)CC(c1ccccc1)c1c(O)c2ccccc2oc1=O (centres undefined) | 0 | 0
15 | N[C@@H](Cc1c[nH]c2ccccc12)C(=O)O | 5.71 | 5.71
16 | CNCCc1ccccn1 | 0 | 6.43

Row | Structure (SMILES) | suppression of toxicity [1] | suppression of toxicity (PubChem AID 1597)
17 | O=C(O)C1CCCNC1 (centres undefined) | 7.14 | 9.29
18 | NC(=O)NC1NC(=O)NC1=O (centres undefined) | 2.86 | 1.43
19 | CC(C)(C)NCC(O)c1cc(O)cc(O)c1 (centres undefined) | 0 | 7.86
20 | CN1CCC(=C2c3ccccc3Sc3ccccc32)CC1 | 1.43 | 0.715
21 | CC(=O)OCC(=O)[C@@]1(O)CCC2C3CCC4=CC(=O)C=CC4(C)C3[C@@H](O)C[C@@]21C (some centres undefined) | 0 | 0.715
22 | CC1(C)S[C@@H]2[C@H](NC(=O)[C@@H](N)c3ccc(O)cc3)C(=O)N2[C@H]1C(=O)O | 4.29 | 7.14
23 | COc1cc(NC(C)CCCN)c2ncccc2c1 (centres undefined) | 5.71 | 7.86
24 | CN(C)CCOC(c1ccccc1)c1ccccc1 | 1.43 | 6.42
25 | NCC1CCC(C(=O)O)CC1 (centres undefined) | 5.71 | 5.71
26 | COc1ccc([C@@H]2CC(=O)c3c(O)cc(O[C@@H]4O[C@H](CO[C@H]5O[C@@H](C)[C@H](O)[C@@H](O)[C@H]5O)[C@@H](O)[C@H](O)[C@H]4O)cc3O2)cc1O | 0 | 2.15
27 | COc1ccc(CN(CCN(C)C)c2ccccn2)cc1 | 2.85 | 6.43
28 | C1CNCCN1 | 4.29 | 15
29 | Cn1c(=O)c2[nH]c(C3CCCC3)nc2n(C)c1=O | 0 | 0.715
30 | NCCCS(=O)(=O)O | 4.29 | 3.57
31 | CN(C)c1nc(N(C)C)nc(N(C)C)n1 | 8.57 | 12.9
32 | NC[C@@H]1O[C@H](OC2[C@@H](O)[C@H](O[C@@H]3[C@H](N)[C@@H](O)C[C@H](N)[C@H]3O[C@H]3O[C@H](CO)[C@@H](O)[C@H](O)[C@H]3N)O[C@@H]2CO)[C@H](N)[C@@H](O)[C@@H]1O (some centres undefined) | 1.43 | 2.15

Reprinted at random: 2 compounds from above
Row | Structure (SMILES) | suppression of toxicity [1] | suppression of toxicity (PubChem AID 1597)
27 | COc1ccc(CN(CCN(C)C)c2ccccn2)cc1 | 2.85 | 6.43
30 | NCCCS(=O)(=O)O | 4.29 | 3.57
